From PubChem BioAssay AID1159536 (DiRusso Lab, Biochemistry Department, University of Nebraska, 2015)
This list was built around the results that the source calls inconclusive (neither active nor inactive); the mix of calls is not that of the screen. The source made the active and inactive calls. How the calls were made is not given here.

Test: algal triacylglycerol accumulation inducers, dose response, qHTS, Chlamydomonas reinhardtii (AID 1159536)
Details: Nile Red lipid fluorescence, 72 h; at 30 µM (top of the series)

SMILES | fold change vs untreated, higher = more lipid
CC(C)c1ccc(CN2CCN(CCO)CC2)cc1 | inconclusive: 8.76
COc1ccc(N2CCN(Cc3ccc(Cl)cc3)CC2)cc1 | inconclusive: 6.95
COc1ccccc1N1CCN(Cc2ccc(O)cc2)CC1 | inconclusive: 21.1
Fc1ccc(N2CCN(CCc3ccccc3)CC2)cc1 | active: 9.42
Cc1ccc(N2CCN(CCc3ccccc3)CC2)cc1 | active: 8.09
O=[N+]([O-])c1ccc(CN2CCN(c3ccc(F)cc3)CC2)cc1 | inconclusive: 9.66
Oc1ccc(CN2CCN(c3ccccc3)CC2)cc1 | inconclusive: 13.4
